Test results from PubChem BioAssay AID493014 (National Center for Advancing Translational Sciences (NCATS), 2011).
The list shows a part of the results. Shown are side measurements of this screen, not its main read-out; they come without a call. Compounds called inactive in the main read-out are mostly missing here. The note in brackets gives the kind of curve behind each potency; many fits are weak.

Experiment: qHTS Assay to Find Inhibitors of Chronic Active B-Cell Receptor Signaling
Settings: ABC-DLBCL IkBa-CBG/CBR reporter, luminescence ratio (green luciferase fused to IkBa over red control in TMD8 lymphoma cells), 4 h
Outline: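 Compounds up to 46 uM were incubated four hours with TMD8 cells whose green CBG68 luciferase is fused to IkappaBalpha; red CBR luminescence normalised the signal, and concentration-effect curves were fitted to fusion, red and ratio data.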

[1] = measured here: CBR red luminescence, cell number
[2] = measured here: IkBa-CBG green luminescence

Structure (SMILES): COCc1cc(=O)n2[nH]c(C)cc2n1
- AC50 [1]: 35.5 µM [rising, single point]

Structure (SMILES): O=C(CC(=O)Nc1cccc(F)c1)Nc1cccc(F)c1
- AC50 [1]: 35.5 µM [rising, single point]

Structure (SMILES): COc1cc2c(cc1OC)C(SC)=NC1(CCCC1)C2
- AC50 [2]: 35.5 µM [falling, single point]

Structure (SMILES): Cc1cc(NC(=O)COc2ccc(C)c(C)c2)no1
- AC50 [1]: 3.98 µM [rising, single point]

Structure (SMILES): O=C(CN1CCCCCC1)Nc1ccc(Br)cc1Br
- AC50 [1]: 20.6 µM [rising, single point]

Structure (SMILES): COC(=O)c1ccc(NC(=O)CCCN2C(=O)NC(C)(C)C2=O)cc1
- AC50 [1]: 16.4 µM [falling, single point]

Structure (SMILES): O=C(Nc1ccc(NC(=O)c2cccs2)cc1)c1ccc(Br)o1
- AC50 [1]: 25.9 µM [rising, single point]

Structure (SMILES): COc1ccccc1C(=O)Nc1nc2ccc(S(C)(=O)=O)cc2s1
- AC50 [1]: 14.6 µM [rising, partial curve, poor fit]

Structure (SMILES): CSc1nc2nc3c(cn2n1)C(=O)CC(c1ccccc1)C3 (configuration not stated)
- AC50 [1]: 0.13 µM [rising, full curve]

Structure (SMILES): O=S(=O)(c1cccc(Cl)c1)n1c(/C=C/c2ccccc2Cl)nc2ccccc21
- AC50 [1]: 11.2 µM [falling, partial curve, poor fit]

Structure (SMILES): O=[N+]([O-])c1ccc(OCc2cnc(Cl)s2)cc1
- AC50 [1]: 14.1 µM [rising, partial curve, poor fit]

Structure (SMILES): CN(C)c1cccc(C(=O)N/N=C/c2ccsc2)c1
- AC50 [1]: 8.2 µM [falling, partial curve]

Structure (SMILES): O=C1Nc2ccccc2N(O)N1c1cc(-c2ccccc2)[nH]n1
- AC50 [1]: 10 µM [falling, single point]

Structure (SMILES): Cc1ccc(CSC2=Nc3ccccc3C3=NC(=O)CN23)cc1
- AC50 [1]: 5.01 µM [rising, full curve]

Structure (SMILES): O=C(N/N=C/c1ccc(-c2ccccc2[N+](=O)[O-])o1)c1cccnc1
- AC50 [1]: 9.2 µM [falling, partial curve, poor fit]

Structure (SMILES): CCCCSc1nc2c(cc1C#N)CCC2
- AC50 [1]: 18.4 µM [rising, single point]

Structure (SMILES): COc1cc(C(=O)OCCCc2cc3ccccc3c(=O)o2)cc(OC)c1OC
- AC50 [1]: 6.51 µM [rising, single point]

Structure (SMILES): N#C/C(=C\c1ccc(-c2ccc(C(=O)O)cc2)o1)C(=O)Nc1ccc(F)cc1
- AC50 [1]: 4.47 µM [falling, partial curve, poor fit]

Structure (SMILES): Cc1ccn2c(=O)nc(SCC(=O)Nc3cccc4ccccc34)nc2c1
- AC50 [1]: 29.1 µM [falling, single point]

Structure (SMILES): COc1ccc(CNc2ccc(C)cc2)cc1Br
- AC50 [1]: 20.6 µM [rising, single point]

Structure (SMILES): CC(C)CCOc1ccc(C(CC(N)=O)C(=O)O)cc1 (configuration not stated)
- AC50 [1]: 6.51 µM [rising, single point]

Structure (SMILES): CC(C)(C)NC(=O)C(c1cccs1)N(C(=O)c1csnn1)c1cccc(F)c1 (configuration not stated)
- AC50 [1]: 0.1 µM [rising, full curve, poor fit]

Structure (SMILES): Cc1ccccc1C(=O)O/N=C(\N)Cc1cccs1
- AC50 [1]: 3.16 µM [rising, full curve, poor fit]

Structure (SMILES): COc1ccccc1N=c1oc2cc(O)ccc2cc1C(N)=O
- AC50 [1]: 2.51 µM [falling, partial curve]

Structure (SMILES): CC(=O)c1cccc(NC(=O)COc2ccccc2)c1
- AC50 [1]: 6.51 µM [falling, single point]

Structure (SMILES): COc1cc(/C=N/NC(=S)NC(C)C)ccc1OCC(=O)Nc1c(C)cc(C)cc1C
- AC50 [1]: 4.11 µM [rising, full curve, poor fit]

Structure (SMILES): CCOC(=O)c1cccc(NC(=O)CSc2nnc(COc3ccccc3)n2CC)c1
- AC50 [1]: 35.5 µM [falling, single point]

Structure (SMILES): Cc1ccc2nc(-c3ccc(SCC(=O)Nc4cc(C)on4)nc3)[nH]c2c1
- AC50 [1]: 10 µM [falling, partial curve, poor fit]

Structure (SMILES): O=C(N1CCN(Cc2ccc3c(c2)OCO3)CC1)C(Cl)(Cl)Cl
- AC50 [1]: 1.58 µM [rising, partial curve]

Structure (SMILES): CCOC(=O)N1CCC(NC(=O)c2cccc3c2C(=O)N(Cc2cccnc2)C3)CC1
- AC50 [1]: 29.1 µM [rising, single point]

Structure (SMILES): O=C(c1cccc(Cl)c1)c1nn(-c2ccccc2)c(=O)cc1C(F)(F)F
- AC50 [1]: 15.8 µM [falling, single point]

Structure (SMILES): CN1C(=O)/C(=C/c2ccccc2OCc2ccc(C(=O)O)cc2)NC1=S
- AC50 [1]: 35.5 µM [falling, single point]

Structure (SMILES): CCN1CCN(Cc2c(OC)ccc3ccccc23)CC1
- AC50 [1]: 5.17 µM [falling, full curve, poor fit]

Structure (SMILES): NC(=O)NC(CC(=O)OCC(=O)NC(=O)NCc1ccco1)c1ccc(Cl)cc1 (configuration not stated)
- AC50 [1]: 6.31 µM [falling, partial curve, poor fit]

Structure (SMILES): O=C(C1CCN(S(=O)(=O)N2CCC3(CC2)OCCO3)CC1)N1CCOCC1
- AC50 [1]: 0.58 µM [falling, full curve, poor fit]

Structure (SMILES): COc1ccc(-c2csc(NC(=O)c3ccc(S(C)(=O)=O)cc3)n2)cc1
- AC50 [1]: 6.31 µM [rising, full curve, poor fit]

Structure (SMILES): CCN1C(=O)c2cccc3c(S(=O)(=O)NCCc4c[nH]c5ccccc45)ccc1c23
- AC50 [1]: 29.1 µM [falling, single point]
- AC50 [2]: 29.1 µM [rising, partial curve, poor fit]

Structure (SMILES): CSc1nc(N(C)NC(=O)c2ccc(Cl)cc2)c2ccccc2n1
- AC50 [1]: 8.2 µM [rising, partial curve]
- AC50 [2]: 6.51 µM [falling, partial curve]

Structure (SMILES): COc1ccccc1NC(=S)NCc1ccccc1
- AC50 [1]: 6.31 µM [rising, full curve]

Structure (SMILES): O=C(NC(=S)Nc1nc(-c2ccc(Br)cc2)cs1)c1cccnc1
- AC50 [1]: 0.891 µM [rising, full curve]

Structure (SMILES): COc1cc([C@H]2OC[C@H]3[C@@H]2CO[C@@H]3c2ccc(O[C@H]3O[C@H](CO)[C@@H](O)[C@H](O)[C@H]3O)c(OC)c2)ccc1O[C@@H]1O[C@H](CO)[C@@H](O)[C@H](O)[C@H]1O
- AC50 [1]: 29.1 µM [rising, single point]

Structure (SMILES): CC(=O)Nc1ccc(SCC(=O)NCC2(N3CCCCC3)CCCCC2)cc1
- AC50 [1]: 16.4 µM [rising, partial curve]

Structure (SMILES): Clc1ncccc1-c1nc2ccccc2s1
- AC50 [1]: 14.1 µM [rising, single point]

Structure (SMILES): Cc1ccc(OCC(=O)N2CCN(S(C)(=O)=O)CC2)cc1
- AC50 [1]: 1.78 µM [rising, full curve]

Structure (SMILES): CNC(=O)c1c(NC(=O)CCS(=O)(=O)c2ccc(C)cc2)sc2c1CCN(C(=O)OC)C2
- AC50 [1]: 29.1 µM [falling, single point]

Structure (SMILES): CC(C)(C)C(=O)COC(=O)c1ccccc1O
- AC50 [1]: 0.231 µM [rising, full curve, poor fit]

Structure (SMILES): Cc1nn2c(NC(C)C)c3c(nc2c1-c1ccccc1)CCC3
- AC50 [1]: 35.5 µM [falling, single point]

Structure (SMILES): COc1ccc(S(=O)(=O)N2CCc3ccccc32)cc1C(=O)Nc1ccc(C(N)=O)cc1
- AC50 [1]: 29.1 µM [rising, single point]

Structure (SMILES): CCN(CC)C(=O)COC(=O)C1=NN(c2cc(C)ccc2C)C(=O)CC1
- AC50 [1]: 8.91 µM [rising, single point]

Structure (SMILES): COc1ccccc1-c1nnc(Sc2nc([N+](=O)[O-])nn2C)o1
- AC50 [1]: 9.2 µM [falling, partial curve, poor fit]

Structure (SMILES): O=C(COc1ccc(Cl)cc1Cl)NC(=S)Nc1ccccc1C(=O)O
- AC50 [1]: 7.94 µM [falling, partial curve, poor fit]

Structure (SMILES): CCOCCCNC(=O)C1CCN(Cc2ccc(OCc3ccccc3)c(OC)c2)CC1
- AC50 [1]: 0.501 µM [rising, full curve, poor fit]

Structure (SMILES): CCOC(=O)c1cc(-c2ccc(F)cc2)n(CCC(=O)Nc2cc(OC)cc(OC)c2)c1C
- AC50 [1]: 0.631 µM [rising, full curve]

Structure (SMILES): CC(O)[C@H]1CNCCN1CCc1cc(C(F)(F)F)cc(C(F)(F)F)c1 (some centres not stated)
- AC50 [1]: 23.1 µM [falling, single point]

Structure (SMILES): CCN(c1ccccc1)S(=O)(=O)c1ccc(OC)c(NC(=O)c2cccs2)c1
- AC50 [1]: 25.1 µM [falling, single point]

Structure (SMILES): O=C(N/N=C/c1ccc2c(c1)OCO2)c1cccnc1
- AC50 [1]: 15.8 µM [falling, partial curve, poor fit]

Structure (SMILES): CC1Cc2ccccc2N1C(=S)Nc1cccc(S(=O)(=O)N(C)C)c1 (configuration not stated)
- AC50 [1]: 15.8 µM [rising, partial curve, poor fit]

Structure (SMILES): Cc1ccsc1C1C(C#N)=C(N)OC2=C1C(=O)CC(C)(C)C2 (configuration not stated)
- AC50 [1]: 12.6 µM [falling, partial curve]

Structure (SMILES): COc1cccc(-c2csc(N3CCN(CC(=O)NNC(=O)c4ccc(Br)cc4)CC3)n2)c1
- AC50 [1]: 18.4 µM [falling, partial curve, poor fit]

Structure (SMILES): COc1ccc(C(=O)NCC2(c3ccccc3)CCOCC2)cc1[N+](=O)[O-]
- AC50 [1]: 6.51 µM [rising, single point]

Structure (SMILES): Cc1cc(C(=O)CCl)c(C)n1-c1c(C)n(C)n(-c2ccccc2)c1=O
- AC50 [1]: 11.2 µM [falling, partial curve]

Structure (SMILES): COC(=O)C(C)Sc1ccc2nnc(-c3ccccc3)n2n1 (configuration not stated)
- AC50 [1]: 35.5 µM [falling, single point]

Structure (SMILES): Cc1nc([N+](=O)[O-])c(Br)n1Cc1ccccc1
- AC50 [1]: 6.31 µM [falling, partial curve]

Structure (SMILES): CCCNC(=O)CSc1nnc(-c2ccc(F)cc2)o1
- AC50 [1]: 11.2 µM [rising, single point]

Structure (SMILES): Cc1ccc(SCCNC(=O)/C=C/c2cccc([N+](=O)[O-])c2)cc1
- AC50 [1]: 25.9 µM [rising, single point]
